No constants are given. Whether binding was seen depends on the method and setting. Some entries that bind do so weakly or less than the wild type. Where a sequence is shown, tags or fusion partners need not be part of it.
How the values were obtained:
Test in all cases: two-hybrid
[1] = target: FtsZ^316-383 (bacterial two-hybrid fusion) (E. coli) (UniProt P0A9A6)
[2] = target: FtsZ^370-383 (bacterial two-hybrid fusion) (E. coli) (UniProt P0A9A6)
[3] = target: FtsZ^316-370 (bacterial two-hybrid fusion) (E. coli) (UniProt P0A9A6)
[4] = target: T1, FtsZ^370-383 (bacterial two-hybrid fusion) (E. coli), P0A9A6; details: remark: other sources report otherwise
T1 chain: DYLDIPAFLRKQAD

Protein sequences, listed by entry. Tags and fused reporters are not part of them. Residues count along the entry.
UniProt P0A9A6, 316-370: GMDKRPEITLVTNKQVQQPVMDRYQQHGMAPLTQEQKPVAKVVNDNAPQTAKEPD
UniProt P0A9A6, 316-383: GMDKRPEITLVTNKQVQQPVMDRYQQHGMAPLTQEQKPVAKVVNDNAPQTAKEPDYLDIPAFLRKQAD

B1: MinC (bacterial two-hybrid fusion) (protein, UniProt P18196 1-231)
chain: MSNTPIELKGSSFTLSVVHLHEAEPKVIHQALEDKIAQAPAFLKHAPVVLNVSALEDPVNWSAMHKAVSATGLRVIGVSGCKDAQLKAEIEKMGLPILTEGKEKAPRPAPTPQAPAQNTTPVTKTRLIDTPVRSGQRIYAPQCDLIVTSHVSAGAELIADGNIHVYGMMRGRALAGASGDRETQIFCTNLMAELVSIAGEYWLSDQIPAEFYGKAARLQLVENALTVQPLN
For B1, the binding [1] was “binds”, the binding [2] was “no binding” and the binding [3] was “no binding”.

B2: SlmA (bacterial two-hybrid fusion) (protein, UniProt P0C093 1-198)
chain: MAEKQTAKRNRREEILQSLALMLESSDGSQRITTAKLAASVGVSEAALYRHFPSKTRMFDSLIEFIEDSLITRINLILKDEKDTTARLRLIVLLLLGFGERNPGLTRILTGHALMFEQDRLQGRINQLFERIEAQLRQVLREKRMREGEGYTTDETLLASQILAFCEGMLSRFVRSEFKYRPTDDFDARWPLIAAQLQ
For B2, the binding [1] was “binds” and the binding [3] was “no binding”.

B3: SlmA (bacterial two-hybrid fusion), P0C093 1-198 (protein)
chain: MAEKQTAKRNRREEILQSLALMLESSDGSQRITTAKLAASVGVSEAALYRHFPSKTRMFDSLIEFIEDSLITRINLILKDEKDTTARLRLIVLLLLGFGERNPGLTRILTGHALMFEQDRLQGRINQLFERIEAQLRQVLREKRMREGEGYTTDETLLASQILAFCEGMLSRFVRSEFKYRPTDDFDARWPLIAAQLQ
For B3, the binding [4] was “no binding”.

B4: FtsA (bacterial two-hybrid fusion) (protein, UniProt P0ABH0 1-420)
chain: MIKATDRKLVVGLEIGTAKVAALVGEVLPDGMVNIIGVGSCPSRGMDKGGVNDLESVVKCVQRAIDQAELMADCQISSVYLALSGKHISCQNEIGMVPISEEEVTQEDVENVVHTAKSVRVRDEHRVLHVIPQEYAIDYQEGIKNPVGLSGVRMQAKVHLITCHNDMAKNIVKAVERCGLKVDQLIFAGLASSYSVLTEDERELGVCVVDIGGGTMDIAVYTGGALRHTKVIPYAGNVVTSDIAYAFGTPPSDAEAIKVRHGCALGSIVGKDESVEVPSVGGRPPRSLQRQTLAEVIEPRYTELLNLVNEEILQLQEKLRQQGVKHHLAAGIVLTGGAAQIEGLAACAQRVFHTQVRIGAPLNITGLTDYAQEPYYSTAVGLLHYGKESHLNGEAEVEKRVTASVGSWIKRLNSWLRKEF
In the case of B4, the binding [1] is reported as “binds”, the binding [2] is reported as “no binding” and the binding [3] is reported as “no binding”.

Source: article doi:10.1101/2025.05.07.652675
